Experimental data taken from publication PMC5487381, “Thioredoxin A Is Essential for Motility and Contributes to Host Infection of Listeria monocytogenes via Redox Interactions” (Frontiers in Cellular and Infection Microbiology, 2017).
Results are given in words; binding and its absence hold for the method and conditions named. Some results given as binding are weak or reduced against the parent protein; the word gives no strength.

The chains behind the UniProt entries cited, without tags or fusion partners.
UniProt P22262: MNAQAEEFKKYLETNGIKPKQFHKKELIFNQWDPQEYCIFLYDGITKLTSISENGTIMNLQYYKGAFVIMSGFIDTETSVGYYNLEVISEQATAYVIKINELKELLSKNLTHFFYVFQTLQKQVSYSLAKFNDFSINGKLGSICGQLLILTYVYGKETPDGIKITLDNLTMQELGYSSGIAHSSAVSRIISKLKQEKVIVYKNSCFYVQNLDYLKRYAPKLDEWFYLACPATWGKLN

Target: PrfA, the central virulence regulator of Listeria (Listeria monocytogenes EGD-e) (UniProt P22262)
Experiment: ITC; TrxA, TrxAox or TrxA active-site mutants (80-200 uM) in the syringe, PrfA, MogR, GmaR or MogR and GmaR (8-20 uM) in the cuvette; 25 C; 25 mM Tris-HCl pH 7.5, 100 mM NaCl; 15 uL injections, 300 s spacing; 1:1 binding model; both purified

B1: oxidized forms of TrxA (TrxAox) (enzyme, UniProt P0A4L3 1-103)
chain: MVKEITDATFEQETSEGLVLTDFWATWCGPCRMVAPVLEEIQEERGEALKIVKMDVDENPETPGSFGVMSIPTLLIKKDGEVVETIIGYRPKEELDEVINKYV
modifications: oxidized form (residues not stated)
- binding: binds weakly
